Reference: article PMC3663837
No constants are given. Whether binding was seen depends on the method and setting. Binding can be weak; no strength is given.

B1: phage-peptide … (peptide)
peptide: VNVQRYRMDGVLGPWPGYNLE
B2: phage-peptide … (peptide)
peptide: LYNSMPSILGVWRPSTSRFPD

What was measured:
[1] = biological target: SUMO-StPTB6 (Solanum tuberosum (potato)); test: ELISA; phage ELISA of clones of a random 21-mer phage peptide library after four rounds of panning against StPTB1 or StPTB6; only the target purified
[2] = biological target: SUMO-StPTB1 (Solanum tuberosum (potato)); test: as above

| Binder | binding [1] | binding [2] |
| --- | --- | --- |
| B1 | binds | – |
| B2 | – | binds |
